Some peptides are written in HELM: one residue between dots, names in brackets for other building blocks, links after the first $.
Tests used:
[1] = general procedure: peptide synthesis; 2-chlorotrityl chloride (CTC) resin, 100-200 mesh, loaded with Fmoc-Pro
[2] = general procedure: peptide synthesis; Fmoc-Pro-CTC resin 10; conditions: whole synthesis, scale 0.1 mmol

Ac-D-Asp(OtBu)-Asp(MA)-Nle-Nle-Leu-Pro-Trp-Pro-OH
step yield ([1]; coupling step): 16% yield

Ac-D-Asp(OtBu)-Glu(MA)-Nle-Nle-Leu-Pro-Trp-Pro-OH
step yield ([1]; coupling step): 10% yield

Ac-D-Asp(OtBu)-Hmg(MA)-Nle-Nle-Leu-Pro-Trp-Pro-OH
step yield ([1]; coupling step): 33% yield

Ac-D-Asp-Dap(Acrylamide)-Nle-Nle-Leu-Pro-Trp-Pro-OH
isolated mass [2]: 10.0 mg
isolated yield [2]: 10% yield

Ac-D-Asp-Glu(MA)-Nle-Nle-Leu-Pro-Trp-Pro-OH
step yield ([1]; late stage modification step): 17% yield

PEPTIDE1{[ac].[dD].[Asp(MA)].[Nle].[Nle].L.P.W.P}$$$$V2.0
step yield ([1]; late stage modification step): 14% yield

PEPTIDE1{[ac].[dD].[Dab(Acrylamide)].[Nle].[Nle].L.P.W.P}$$$$V2.0
isolated mass [2]: 8.6 mg
isolated yield [2]: 8% yield

PEPTIDE1{[ac].[dD].[Hmg(MA)].[Nle].[Nle].L.P.W.P}$$$$V2.0
step yield ([1]; late stage modification step): 12% yield

PEPTIDE1{[ac].[dD].[Lys(Acrylamide)].[Nle].[Nle].L.P.W.P}$$$$V2.0
isolated mass [2]: 6.7 mg
isolated yield [2]: 6% yield

PEPTIDE1{[ac].[dD].[Orn(Acrylamide)].[Nle].[Nle].L.P.W.P}$$$$V2.0
isolated mass [2]: 5.0 mg
isolated yield [2]: 5% yield

RhB-Pro-6AH-D-Asp(OtBu)-Glu(MA)-Nle-Nle-Leu-Pro-Trp-Pro-OH
step yield ([1]; coupling step): 15%

RhB-Pro-6AH-D-Asp-Glu(MA)-Nle-Nle-Leu-Pro-Trp-Pro-OH
step yield ([1]; late stage modification step): 28%

— publication PMC9960274 (Molecules, 2023)
